In PubChem BioAssay AID624297 (National Center for Advancing Translational Sciences (NCATS), 2012):
Hit rate of the full screen: of about 340,000 compounds, about 6,200 (1.8%) were called active. This list was built around the results that the source calls inconclusive (neither active nor inactive); the mix of calls is not that of the screen. Calls follow the shape of the dose curve; as a rule, active = well fitted activation curve with a large enough effect; inconclusive = small, poorly fitted or top-dose-only effect; inactive = no such curve, though single readings can be large or run the other way. Potencies beside an inconclusive call are fits to weak or partial responses and may not hold up.

Assay: A quantitative high throughput screen for small molecules that induce DNA re-replication in SW480 colon adenocarcinoma cells. Also: nearly all actives have a fitted effect of over 55% in size.
Details: Hoechst DNA content imaging, 48 h; series mostly up to 46.1 µM
Method in brief: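 Image-based read-out: total Hoechst fluorescence of nuclei (405 nm excitation, 500-530 nm emission), with hits raising the fraction of high-intensity nuclei. SW480 colon cells incubated 48 hr with compounds at 37 C.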
Potency is read from the fitted curve at half-maximal effect.

| Compound | Potency |
| --- | --- |
| COc1ccc(C(=O)NC(=S)NC(C)C)cc1Br | inconclusive: 23.1 µM [activator, single point] |
| CC(C)C(C)(C#N)NC(=O)CN1C(=O)NC2(CCCc3ccccc32)C1=O (configuration not stated) | inconclusive: 18.4 µM [activator, single point] |
| CCOC(=O)C1Sc2ccccc2NC1=O (configuration not stated) | inconclusive: 5.62 µM [activator, single point] |
| CCN(c1ccccc1)S(=O)(=O)c1ccc(OC)c(NC(=O)CNCCc2ccccc2)c1 | inconclusive: 0.58 µM [activator, partial curve, poor fit] |
| CC(=O)Nc1ccc(NC(=O)c2cccc3c2-c2ccccc2C3=O)cc1 | inconclusive: 23.1 µM [activator, single point] |
| O=C(c1ccccc1Cl)N1N=C(c2ccc(Br)cc2)CC1c1nc2ccccc2[nH]1 (configuration not stated) | inconclusive: 16.4 µM [activator, single point] |
| COc1ccc(-c2nn(-c3ccccc3)cc2C(=O)NC(=S)NNC(=O)c2ccncc2)cc1 | inconclusive: 20.6 µM [activator, single point] |
| Cc1ccc(/C=C2\SC(=S)N(CCCC(=O)N3CCOCC3)C2=O)cc1 | inconclusive: 29.1 µM [activator, single point] |
| COc1ccc(Nc2nnc(SCC(=O)/C=C3/N(C)c4ccccc4C3(C)C)s2)cc1 | inactive |
| O=C(/C=C/c1ccccc1)c1ccc(NC2=NCCCS2)cc1 | inconclusive: 32.6 µM [activator, single point] |
| CCOC(=O)c1c(C)[nH]c(C(=O)OCC(=O)Nc2sccc2C(N)=O)c1C | inconclusive: 23.1 µM [activator, single point] |
| CCOC(=O)c1ccc(CC2S/C(=C(\C#N)C(C)=O)NC2=O)cc1 (configuration not stated) | inactive |
| O=C(CCN1C(=O)COc2ccccc21)NCCN1CCc2ccccc2C1 | inactive |
| O=C(/C=C/c1cccc([N+](=O)[O-])c1)NC(=S)Nc1cccc(NC(=O)c2ccccc2Cl)c1 | inconclusive: 25.9 µM [activator, partial curve, poor fit] |
| Nc1nonc1-n1nnc(C(=O)N/N=C/c2ccc(OCc3ccccc3)cc2)c1CNc1ccccc1 | inconclusive: 18.4 µM [activator, single point] |
| CCOC(=O)Cc1csc(N/N=C/c2ccc(C(F)(F)F)cc2)n1 | inactive |
| CCN(CC(=O)Nc1ccc2c(c1)OCCO2)C(=O)C(C)Oc1ccc(Cl)cc1 (configuration not stated) | inconclusive: 32.6 µM [activator, partial curve, poor fit] |
| O=C(CSC1=NS(=O)(=O)c2ccccc2N1)N1CCCCC1 | inactive |
| C=C1C(=O)c2sccc2C(c2ccc(OC)c(OC)c2)C1COC(C)=O (configuration not stated) | inconclusive: 5.8 µM [activator, partial curve, poor fit] |
| CCCCNC(=O)c1cc2c(=O)n3cccc(C)c3nc2n(CCN2CCOCC2)c1=N | inconclusive: 16.4 µM [activator, single point] |
| COc1cc(NC(=O)CSc2nc(C3CC3)nc3ccccc23)cc(OC)c1 | inconclusive: 29.1 µM [activator, single point] |

2 consecutive compounds out of the list so far:

| Compound | Potency |
| --- | --- |
| CC(=O)Nc1ccc(NC(=O)c2cccc3c2-c2ccccc2C3=O)cc1 | inconclusive: 23.1 µM [activator, single point] |
| O=C(c1ccccc1Cl)N1N=C(c2ccc(Br)cc2)CC1c1nc2ccccc2[nH]1 (configuration not stated) | inconclusive: 16.4 µM [activator, single point] |

Next records follow:

| Compound | Potency |
| --- | --- |
| CCOC(=O)c1cccc(NC(=O)c2cc3sccc3n2C)c1 | inconclusive: 25.9 µM [activator, partial curve, poor fit] |
| OC1(C2(O)CC(c3ccccc3)ON2)CCCCC1 (configuration not stated) | inconclusive: 29.1 µM [activator, single point] |
| COc1cc2cnc(-c3ccccc3)c(-c3cccc(C(F)(F)F)c3)c2cc1OC | inconclusive: 29.1 µM [activator, single point] |
| Cc1nn2c(COc3ccc(NC(=O)c4ccccc4Cl)cc3)nnc2c2ccccc12 | active: 8.2 µM |
| CC(C)c1ccc(/C=C/c2[nH]c(=O)[nH]c(=O)c2[N+](=O)[O-])cc1 | inactive |
| CNCc1ccccc1Sc1ccc(OC)cc1 | inactive |
| Cc1nn2c(nc1=O)NNC2(C)C(C)(C)C (configuration not stated) | inconclusive: 18.4 µM [activator, single point] |
| Cc1ccc(C)n1-c1ccc(C(=O)NC2CCN(Cc3ccccc3)CC2)cc1 | inconclusive: 25.9 µM [activator, single point] |
| CC(C)=C1SC(N2CCN(c3ccc(C)cc3)CC2)=NC1=O | inactive |
| COc1cc([N+](=O)[O-])cc(/C=N/N(CCC#N)C(C)=O)c1O | active: 5.8 µM |
| CCc1ccc(Nc2nnc(SCC(=O)Nc3sccc3C(N)=O)s2)cc1 | inconclusive: 29.1 µM [activator, single point] |
| Cc1ccc(/C=C2/SC(=S)N(CCC(=O)N3CCOCC3)C2=O)cc1 | inconclusive: 29.1 µM [activator, single point] |
| CC(=NN1CC(=O)NC1=O)c1ccc([N+](=O)[O-])o1 | inconclusive: 29.1 µM [activator, partial curve, poor fit] |
| CC1(C)CC2CC(C)(CN2C(=O)COC(=O)CNC(=O)c2ccc(Cl)c(Cl)c2)C1 (configuration not stated) | inconclusive: 1.3 µM [activator, full curve, poor fit] |
| COc1ccc(Cc2nnc(NC(=O)c3ccc(OC)c(OC)c3)s2)cc1 | inconclusive: 29.1 µM [activator, single point] |
| COCCNC(=O)/C(C#N)=C/c1ccc(C)o1 | inconclusive: 5.17 µM [activator, single point] |
| Nc1ncnc2c1ncn2C1C=C(CO)C(O)C1O (configuration not stated) | inconclusive: 0.0731 µM [activator, full curve, poor fit] |
| CCOc1ccc(C2C3=C(Nc4nc(N)[nH]c(=O)c42)c2ccccc2C3=O)cc1 (configuration not stated) | inactive |
| Cc1[nH]n(-c2ccccc2)c(=O)c1/C=N/N1C(=O)c2cccc3cccc(c23)C1=O | inconclusive: 14.6 µM [activator, single point] |
| NC(=O)C1CCN(c2oc(/C=C/c3ccccc3)nc2S(=O)(=O)c2ccccc2)CC1 | inconclusive: 0.794 µM [activator, full curve, poor fit] |
| Nc1ccccc1O | inconclusive: 4.11 µM [activator, single point] |
